Assay results taken from PubChem BioAssay AID2685 (National Center for Advancing Translational Sciences (NCATS), 2010).
Out of some 320,000 compounds screened, about 2,100 (0.66%) were called active. Inconclusive means that the source gave no clear call. Such entries were picked first, then a sample of the others. Calls follow the shape of the dose curve; as a rule, active = well fitted inhibition curve with a large enough effect in the signal ratio, with a control signal flat (not every such curve was filed as active); inconclusive = small, poorly fitted or top-dose-only effect, or effect the other way, or a change in a side signal; inactive = flat fitted curve, though single readings scatter; the % refers to the signal ratio. A potency beside an inconclusive call is a rough fit, not a confirmed value.

Assay: qHTS Assay for Lipid Storage Modulators in Drosophila S3 Cells
Settings: BODIPY lipid droplet fluorescence, 18-24 h, cells fed with added oleic acid; lipid storage change, negative = inhibition: at 46.1 µM (top of the series) unless noted
Outline: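 Laser-scanning cytometry quantifies lipid droplet accumulation (500–530 nm total intensity; droplet/cell object ratio) in oleic acid-fed (400 uM added) Drosophila S3 cells treated with a concentration series. 20 uM Triacsin C defined 100% inhibition.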
% is scaled to controls: 0 for no effect and ±100 for the full control effect; potency is read from the fitted curve at half-maximal effect.

| SMILES | lipid storage change, negative = inhibition | Potency |
| --- | --- | --- |
| c1ccc(CCc2cc3ccccc3[nH]2)cc1 | inconclusive: 13.3% |  |
| CC[n+]1c(/C=C2\C=C(C)CC(C)C2)sc2ccccc21 (configuration not stated) | inconclusive: 20.8% |  |
| CNc1ccc(/C=C/C(=O)c2cccc3ccccc23)cc1[N+](=O)[O-] |  | inconclusive: 32.6 µM [falling, single point] |
| O=C(c1ccc(CNS(=O)(=O)c2cccc(Cl)c2)cc1)N1CCCCC1 | inconclusive: -30.4% |  |
| O=C(CN(C(=O)CCC(=O)Nc1nccs1)c1ccccc1F)NCC1CCCO1 (configuration not stated) | inconclusive: -23.3% |  |
| COc1ccc(C(=O)Nc2nc(C)c(C(=O)N(C)C)s2)cc1OC | inconclusive: 57% |  |
| CCCCNC(=S)N(CCO)Cc1cc2cc3c(cc2[nH]c1=O)OCCO3 | inconclusive: -179% |  |
| CCOC(=O)c1cc2sccc2n1CC(=O)Nc1ccc2c(c1)OCCO2 |  | inconclusive: 16.4 µM [rising, single point] |
| CCC(C)NC(=O)c1ccc2c(c1)N(Cc1ccccc1)C(=O)CS2 (configuration not stated) | inconclusive: -13.1% |  |
| O=C(O)/C(=C\c1cccs1)Sc1nnc(-c2ccc(F)cc2)o1 | inconclusive: 9.74% |  |
| COc1c(C)cc(C(=O)C2CCCN(C(=O)Cn3ccc(C)n3)C2)cc1C (configuration not stated) | inconclusive: -10.7% |  |
| O=C(O)c1cccc(NS(=O)(=O)c2ccc3c(c2)OCCCO3)c1 | inconclusive: -22% |  |
| Cc1cc(S(=O)(=O)NCCN(C)C)c(C)s1 | inconclusive: 0.0692% |  |
| CCOc1ccc(NC(=O)CSc2nnnn2C2CC2)cc1S(=O)(=O)N1CCCC1 |  | inconclusive: 0.58 µM [falling, single point] |
| Cc1ccc(N(CC(O)CN2CCCCC2)S(=O)(=O)c2ccccc2[N+](=O)[O-])cc1 (configuration not stated) | inconclusive: 21.7% |  |
| COc1cccc(NC(=O)C(NC2CCCC2)c2ccccc2)c1 (configuration not stated) | inconclusive: -32.1% |  |
| C=CCN1C(=O)[C@@H]2Cc3c([nH]c4ccccc34)C(c3ccc(O)cc3)N2C1=S (some centres not stated) |  | inconclusive: 23.1 µM [falling, single point] |
| O=C(NNS(=O)(=O)c1ccc([N+](=O)[O-])cc1)C1CCCCC1 |  | inconclusive: 18.4 µM [activator, single point] |
| O=[N+]([O-])/C(C=Nc1ccccc1O)=C\Nc1ccccc1O | inconclusive: -15.9% |  |
| O=C(COC(=O)c1ccccc1-n1cnnn1)c1ccc(F)c(F)c1 | inconclusive: 19.1% |  |
| CC(=O)c1cccc(NS(=O)(=O)c2ccc(-c3cc(C)no3)s2)c1 | inconclusive: -25.9% |  |
| O=C(Nc1cc(Cl)cc(Cl)c1)C(NCCCO)c1ccccc1 (configuration not stated) |  | inconclusive: 29.1 µM [rising, single point] |
| Cc1cc(NCCN(C)C)n2nc(-c3cccs3)cc2n1 | inconclusive: 6.06% |  |
| Nc1nonc1-n1nnc(C(=O)N/N=C/c2cccnc2)c1-c1ccccc1 | inconclusive: 69.5% |  |

| SMILES | lipid storage change, negative = inhibition | Potency |
| --- | --- | --- |
| CN1CCN(S(=O)(=O)c2cccc(C(=O)NCc3ccc(Cl)cc3)c2)CC1 | inconclusive: 29.8% |  |
| COc1ccc(/C=N/N(CCC(=O)NC(C)(C)C)C2=NS(=O)(=O)c3ccccc32)cc1 |  | inconclusive: 29.1 µM [falling, single point] |
| CC(Sc1cccc[n+]1[O-])c1ccccc1 (configuration not stated) |  | inconclusive: 29.1 µM [activator, single point] |
| C=CCOc1ccc(/C=C/C(=O)OCC(=O)N(C)C2CCS(=O)(=O)C2)cc1 (configuration not stated) |  | inconclusive: 0.0517 µM [activator, full curve, poor fit] |
| CCNC(=O)NC(=O)C(C)OC(=O)C1CCN(S(=O)(=O)c2ccccc2F)CC1 (configuration not stated) |  | inconclusive: 0.731 µM [falling, full curve, poor fit] |
| Cc1ccc(OCCCN2C(=O)C(=O)c3cc(C)ccc32)cc1 |  | inconclusive: 0.0291 µM [falling, partial curve, poor fit] |
| CN(CC(=O)Nc1cccc(F)c1)C(=O)/C=C/c1ccc(Br)s1 | inconclusive: -16% |  |
| O=C1C2CCCCN2C(=O)N1CCCCN1CCN(c2cccc(Br)c2)CC1 (configuration not stated) |  | inconclusive: 6.51 µM [falling, single point] |
| COc1cccc(CNC(=O)CCC2CCCN(C(=O)c3ccc(F)c(Cl)c3)C2)c1 (configuration not stated) |  | inconclusive: 29.1 µM [cytotoxic, single point] |
| Cc1ccc2c(c1)N(CC(=O)NCCCN1CCN(C)CC1)C(=O)CO2 | inconclusive: 165% |  |
| CCOC(=O)C1CCCN(C(=O)c2ccc(S(=O)(=O)N3CCOCC3)cc2)C1 (configuration not stated) | inconclusive: 21.1% |  |
| COc1cc(C(=O)NCC(=O)OCc2ccccc2Cl)cc(OC)c1OC | inconclusive: -46.6% [cytotoxic] [at 0.00295 µM] |  |
| Cn1c(=O)c(=O)n(C)c2cc(S(=O)(=O)N3CCc4ccccc43)ccc21 |  | inconclusive: 2.59 µM [activator, partial curve] |
| Cc1ccc(CNS(=O)(=O)c2ccc3c(c2)CCN3C(=O)CCCC(=O)O)cc1 | inconclusive: 8.32% |  |
| CCCCn1c(CCNC(=O)c2ccco2)nc2ccccc21 | inactive: -21.9% |  |
| CC(C)c1ccc(/C=C/C2=NNC(=O)CC2)cc1 |  | inconclusive: 3.26 µM [activator, single point] |
| O=C(Nc1ccccc1Cl)NC1CCCCCCC1 | inconclusive: 18.9% |  |
| COCc1cc(C)n(CC(=O)NCc2ccccc2)c(=O)c1C#N | inconclusive: 120% |  |
| Cc1nnc(NC(=O)c2cc3ccccc3o2)s1 |  | inconclusive: 0.103 µM [activator, partial curve, poor fit] |
| Cc1cc(C)cc(NS(=O)(=O)c2ccc3[nH]c(=O)ccc3c2)c1 | inconclusive: -40.4% |  |
| CCn1c(SCc2nnc(-c3ccccc3)o2)nc2c1c(=O)n(C)c(=O)n2C |  | inconclusive: 2.91 µM [activator, partial curve] |
| Cc1cccc(N(CC(=O)NC2CC2)S(=O)(=O)c2ccc(Cl)cc2)c1 |  | inconclusive: 29.1 µM [activator, single point] |
| CC(C)CC1NC2(C(=O)N(C)c3ccccc32)C2C(=O)N(C(C)C)C(=O)C12 (configuration not stated) | inconclusive: 23.5% |  |

Reformatted field by field: part of the list above.
CCNC(=O)NC(=O)C(C)OC(=O)C1CCN(S(=O)(=O)c2ccccc2F)CC1 (configuration not stated)
  Potency: inconclusive: 0.731 µM [falling, full curve, poor fit]
Cc1ccc(OCCCN2C(=O)C(=O)c3cc(C)ccc32)cc1
  Potency: inconclusive: 0.0291 µM [falling, partial curve, poor fit]
CN(CC(=O)Nc1cccc(F)c1)C(=O)/C=C/c1ccc(Br)s1
  lipid storage change, negative = inhibition: inconclusive: -16%
